The record followed here is article PMC8573169, “Structural basis for the inhibition of the Bacillus subtilis c-di-AMP cyclase CdaA by the phosphoglucomutase GlmM” (The Journal of Biological Chemistry, 2021).

These are yes or no findings as the source states them, for the method shown. Some binding calls cover weakened binding; strength is not graded here. Tags and fused reporters may be left off the sequences shown.

The test addresses T1, B. subtilis CdaA catalytic domain (CdaACD), His-tagged (B. subtilis) (UniProt Q45589).
T1 sequence: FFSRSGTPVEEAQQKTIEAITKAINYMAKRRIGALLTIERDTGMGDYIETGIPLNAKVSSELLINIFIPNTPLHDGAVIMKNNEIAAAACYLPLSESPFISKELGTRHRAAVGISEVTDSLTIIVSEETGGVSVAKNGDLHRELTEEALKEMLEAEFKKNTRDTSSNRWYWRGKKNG
Description: SEC; lysates of the two E. coli strains mixed after the French press step, Ni-NTA affinity chromatography (both proteins His-tagged), then preparative Superdex 200 HiLoad 16/60 in 30 mM Tris pH 7.5, 150 mM NaCl; peak fractions on SDS-PAGE with Coomassie staining. On the technique in general: In gel filtration, larger molecules generally elute earlier.

B1: B. subtilis GlmM D151A/E154A alanine substitution variant, His-tagged (enzyme, UniProt O34824 1-448)
chain: MGKYFGTDGVRGVANSELTPELAFKVGRFGGYVLTKDKQRPKVLIGRDTRISGHMLEGALVAGLLSIGAEVMRLGVISTPGVSYLTKAMDAEAGVMISASHNPVQDNGIKFFGGDGFKLSDEQEAEIERLMDEPEDKLPRPVGADLGLVNAYFAGGQKYLQFLKQTADEDFTGIHVALDCANGATSSLATHLFADLDADVSTMGTSPNGLNINDGVGSTHPEALSAFVKEKNADLGLAFDGDGDRLIAVDEKGNIVDGDQIMYICSKHLKSEGRLKDDTVVSTVMSNLGFYKALEKEGIKSVQTAVGDRYVVEAMKKDGYNVGGEQSGHLIFLDYNTTGDGLLSAIMLMNTLKATGKPLSELAAEMQKFPQLLVNVRVTDKYKVEENEKVKAVISEVEKEMNGDGRILVRPSGTEPLVRVMAEAKTKELCDEYVNRIVEVVRSEMGLE
As for B1, the binding entry was “binds”.
